Reference: patent US10414718B2, “Dezocine analogue” (priority 2016, dated 2019)

By UniProt entry, the sequences of proteins in these tests, tags left out.
UniProt P35372, whole entry: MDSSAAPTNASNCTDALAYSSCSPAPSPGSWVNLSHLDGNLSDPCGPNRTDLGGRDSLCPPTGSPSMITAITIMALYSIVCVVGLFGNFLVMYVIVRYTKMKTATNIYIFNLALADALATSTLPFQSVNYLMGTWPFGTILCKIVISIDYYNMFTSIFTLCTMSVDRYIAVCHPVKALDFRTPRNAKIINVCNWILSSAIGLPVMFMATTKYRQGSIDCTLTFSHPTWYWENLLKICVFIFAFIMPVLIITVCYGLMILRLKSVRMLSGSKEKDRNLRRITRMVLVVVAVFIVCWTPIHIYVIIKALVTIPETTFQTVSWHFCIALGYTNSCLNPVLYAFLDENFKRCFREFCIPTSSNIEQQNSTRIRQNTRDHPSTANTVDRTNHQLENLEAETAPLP

Target: T1, μ opioid receptor (Homo sapiens, UniProt P35372)
T1 construct: expressed in transfected cells
Assay: FLIPR intracellular calcium signal test, HEK293-μ cells
Assay type: cell-based
Procedure: Fluorescence imaging plate reader FLIPR was used to detect changes of intracellular calcium signals. EC50 and IC50 values of the compounds were used as indicators to evaluate the activation or inhibition of the compounds on μ, κ, and δ opioid receptors.
Cell lines: HEK293-μ, HEK293-κ and HEK293-δ, stable-transfected cell lines HEK293-μ, HEK293-κ and HEK293-δ; Cell culture media (DMEM, Invitrogen #11965118, 10% fetal bovine serum Invitrogen #10099141, Geneticin Selective Antibiotic (G418) 300 μg/mL, Invitrogen #10131027, Blasticidin-S HCL 2 ug/mL Invitrogen #A1113902)
1. Cell Seeding (HEK293-μ, HEK293-κ and HEK293-δ Cells)
1) Preheating medium, pancreatic enzyme, and DPBS in a 37° C. water bath. Aspirating the culture medium from the cell culture flask and washing it with 10 mL DPBS; […]
3) Suspending the cells with 10-15 mL culture medium in each T150 cm^2 cell culture flask, centrifugating at 800 rpm for 5 minutes, and resuspending the cells with 10 mL culture medium, aspirating 1 mL cell resuspension to be counted with Vi-cell; […]
4) IC50 test: In FLIPR, successively placing 4× EC80 plate, cell plate, FLIPR tip, running the program and reading the fluorescence value. […]

Which EC50 (EC50 (activation) test, read-out: Mu receptor EC50) does the source give for `CC12CCCCCC(Cc3ccc(O)cc31)C2N` (centres unmarked) [Compound 2, reference compound] here?
Its EC50 is at most 100 nM.

And the IC50 (IC50 (inhibition) test against EC80 of positive agonist, read-out: Mu receptor IC50)?
Its IC50 is 100 to 1000 nM.
